Some of the results follow. Many values rest on one well or one pass, so single values are uncertain.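 The apoptosis fraction was the count of cleaved-PARP antibody-stained nuclei relative to all DNA-stained nuclei, imaged in 1,536-well plates. Screening doses were set so most cells survived, and baseline and induced cleaved-PARP levels vary greatly across cell lines.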
Assays:
Test in all cases: cleaved PARP positive nuclei fraction relative to DMSO control; melanoma cells; higher = more apoptosis
Conditions in all cases: library dose: low library concentration; 72 h
[1] = system: 501Mel
[2] = system: A101D
[3] = system: A2058
[4] = system: A375
[5] = system: C32
[6] = system: CBRC008 (line from a melanoma biopsy)
[7] = system: CBRC014 (line from a melanoma biopsy)
[8] = system: CBRC016 (line from a melanoma biopsy)
[9] = system: CBRC017 (line from a melanoma biopsy)
[10] = system: CBRC034 (line from a melanoma biopsy)
[11] = system: COLO792
[12] = system: COLO800
[13] = system: COLO829
[14] = system: G361
[15] = system: IPC-298
[16] = system: IST-MEL1
[17] = system: LB2518-MEL
[18] = system: LOXIMVI
[19] = system: MEL-HO

SMILES	cleaved PARP positive nuclei fraction [1] [%]	cleaved PARP positive nuclei fraction [2] [%]	cleaved PARP positive nuclei fraction [3] [%]	cleaved PARP positive nuclei fraction [4] [%]	cleaved PARP positive nuclei fraction [5] [%]	cleaved PARP positive nuclei fraction [6] [%]	cleaved PARP positive nuclei fraction [7] [%]	cleaved PARP positive nuclei fraction [8] [%]	cleaved PARP positive nuclei fraction [9] [%]	cleaved PARP positive nuclei fraction [10] [%]	cleaved PARP positive nuclei fraction [11] [%]	cleaved PARP positive nuclei fraction [12] [%]	cleaved PARP positive nuclei fraction [13] [%]	cleaved PARP positive nuclei fraction [14] [%]	cleaved PARP positive nuclei fraction [15] [%]	cleaved PARP positive nuclei fraction [16] [%]	cleaved PARP positive nuclei fraction [17] [%]	cleaved PARP positive nuclei fraction [18] [%]	cleaved PARP positive nuclei fraction [19] [%]
CN1CCN(c2ccc3nc(-c4c(N)c5c(F)cccc5[nH]c4=O)[nH]c3c2)CC1 [Dovitinib] + Cc1nc(Nc2ncc(C(=O)Nc3c(C)cccc3Cl)s2)cc(N2CCN(CCO)CC2)n1 [dasatanib] (first compound 0.1 µM, partner dose 0.004 µM)	211	110	188	139	82.6	90.4	108	26.8	86.8	97.4	73.7	154	149	84.3	87.2	207	139	237	125
CS(=O)(=O)CCNCc1ccc(-c2ccc3ncnc(Nc4ccc(OCc5cccc(F)c5)c(Cl)c4)c3c2)o1 [lapatinib] + Cc1nc(Nc2ncc(C(=O)Nc3c(C)cccc3Cl)s2)cc(N2CCN(CCO)CC2)n1 [dasatanib] (first compound 0.8 µM, partner dose 0.004 µM)	107	110	154	375	165	125	135	92.1	81.7	59.8	146	122	106	137	60.6	403	96.5	72.6	46.5
O=C(O)[C@@H]1[O][Sb](=[O])([O][Sb]2(=[O])[O][C@H]([C@H](O)CO)[C@H](O)[C@H](C(=O)O)[O]2)[O][C@H]([C@H](O)CO)[C@@H]1O (some centres undefined) [stibogluconate] + CC(=O)c1c(C)c2cnc(Nc3ccc(N4CCNCC4)cn3)nc2n(C2CCCC2)c1=O [palbociclib] (first compound 2 µM, partner dose 0.04 µM)	279	56.1	91.4	116	107	50	118	133	121	107	79.5	74.6	69.8	132	186	137	266	171	99.1
C[C@@H](Oc1cc(-c2cnn(C3CCNCC3)c2)cnc1N)c1c(Cl)ccc(F)c1Cl [Crizotinib] + Nc1ccn([C@@H]2O[C@H](CO)[C@@H](O)C2(F)F)c(=O)n1 [gemcitabine] (first compound 0.2 µM, partner dose 0.0004 µM)	66.2	93.7	75.7	51.4	160	148	94.3	125	112	75.9	148	71	221	106	85.4	162	113	99	56.2
CN1CCN(c2ccc3nc(-c4c(N)c5c(F)cccc5[nH]c4=O)[nH]c3c2)CC1 [Dovitinib] + Nc1ncn([C@H]2C[C@H](O)[C@@H](CO)O2)c(=O)n1 [decitabine] (first compound 0.1 µM, partner dose 0.1 µM)	84.3	166	347	134	260	102	96.5	167	126	64.7	54.6	129	105	282	59.7	136	227	34	154
CNC(=O)c1cc(Oc2ccc(NC(=O)Nc3ccc(Cl)c(C(F)(F)F)c3)cc2)ccn1 [sorafenib] + O=C(O)c1ccc2c(c1)nc(Nc1cccc(Cl)c1)c1ccncc12 [CX4945] (first compound 0.4 µM, partner dose 0.4 µM)	58.8	84.5	188	55.6	95.6	235	114	68.4	133	220	27.2	47	97.2	85.8	89.7	53.1	141	51.6	149
CNC(=O)c1cc(Oc2ccc(NC(=O)Nc3ccc(Cl)c(C(F)(F)F)c3)cc2)ccn1 [sorafenib] + C=CCNC1=C2C[C@@H](C)C[C@H](OC)[C@H](O)[C@@H](C)/C=C(\C)[C@H](OC(N)=O)[C@@H](OC)/C=C\C=C(/C)C(=O)NC(=CC1=O)C2=O [Tanespimycin] (first compound 0.4 µM, partner dose 0.002 µM)	82.9	95.6	49.8	40.6	167	130	111	103	110	155	188	109	157	73	45.8	137	115	56.5	123
CC(C)C[C@H](NC(=O)[C@H](Cc1ccccc1)NC(=O)c1cnccn1)B(O)O [Bortezomib] + O=C(O)c1ccc2c(c1)nc(Nc1cccc(Cl)c1)c1ccncc12 [CX4945] (first compound 0.001 µM, partner dose 0.4 µM)	316	420	147	134	82.1	1130	285	1150	638	190	100	105	185	5860	135	68.7	313	152	113
Nc1ncn([C@H]2C[C@H](O)[C@@H](CO)O2)c(=O)n1 [decitabine] + COc1ccc(Cl)c(Nc2nc3ccccc3nc2NS(=O)(=O)c2cccc(NC(=O)C(C)(C)N)c2)c1 [XL147] (first compound 0.1 µM, partner dose 0.8 µM)	64.6	100	310	310	79.8	374	120	351	205	126	91.6	73.8	51.3	75.1	141	128	132	69.3	129
Cn1c(=O)n(-c2ccc(C(C)(C)C#N)cc2)c2c3cc(-c4cnc5ccccc5c4)ccc3ncc21 + CC(=O)c1c(C)c2cnc(Nc3ccc(N4CCNCC4)cn3)nc2n(C2CCCC2)c1=O [palbociclib] (first compound 0.004 µM, partner dose 0.04 µM)	148	134	67	453	105	97.8	117	134	137	136	144	89.5	168	84.1	104	98.5	150	142	59.8
C[C@@H](Oc1cc(-c2cnn(C3CCNCC3)c2)cnc1N)c1c(Cl)ccc(F)c1Cl [Crizotinib] + C=C(c1ccc(C(=O)O)cc1)c1cc2c(cc1C)C(C)(C)CCC2(C)C [Bexarotene] (first compound 0.2 µM, partner dose 2 µM)	202	22.5	58.4	147	72.6	150	108	133	210	72.1	147	65.2	83.2	150	48.8	268	189	106	63.7

Single records, from the list above. Values in the order: cleaved PARP positive nuclei fraction [1] [%] | cleaved PARP positive nuclei fraction [2] [%] | cleaved PARP positive nuclei fraction [3] [%] | cleaved PARP positive nuclei fraction [4] [%] | cleaved PARP positive nuclei fraction [5] [%] | cleaved PARP positive nuclei fraction [6] [%] | cleaved PARP positive nuclei fraction [7] [%] | cleaved PARP positive nuclei fraction [8] [%] | cleaved PARP positive nuclei fraction [9] [%] | cleaved PARP positive nuclei fraction [10] [%] | cleaved PARP positive nuclei fraction [11] [%] | cleaved PARP positive nuclei fraction [12] [%] | cleaved PARP positive nuclei fraction [13] [%] | cleaved PARP positive nuclei fraction [14] [%] | cleaved PARP positive nuclei fraction [15] [%] | cleaved PARP positive nuclei fraction [16] [%] | cleaved PARP positive nuclei fraction [17] [%] | cleaved PARP positive nuclei fraction [18] [%] | cleaved PARP positive nuclei fraction [19] [%]
Nc1ncn([C@H]2C[C@H](O)[C@@H](CO)O2)c(=O)n1 [decitabine] + COc1ccc(Cl)c(Nc2nc3ccccc3nc2NS(=O)(=O)c2cccc(NC(=O)C(C)(C)N)c2)c1 [XL147] (first compound 0.1 µM, partner dose 0.8 µM) in the list: 64.6 | 100 | 310 | 310 | 79.8 | 374 | 120 | 351 | 205 | 126 | 91.6 | 73.8 | 51.3 | 75.1 | 141 | 128 | 132 | 69.3 | 129
CNC(=O)c1cc(Oc2ccc(NC(=O)Nc3ccc(Cl)c(C(F)(F)F)c3)cc2)ccn1 [sorafenib] + O=C(O)c1ccc2c(c1)nc(Nc1cccc(Cl)c1)c1ccncc12 [CX4945] (first compound 0.4 µM, partner dose 0.4 µM) in the list: 58.8 | 84.5 | 188 | 55.6 | 95.6 | 235 | 114 | 68.4 | 133 | 220 | 27.2 | 47 | 97.2 | 85.8 | 89.7 | 53.1 | 141 | 51.6 | 149
